From PubChem BioAssay AID1439 (NMMLSC, 2008)
Out of some 220,000 compounds screened, about 770 (0.35%) were called active. Inconclusive results, whose numbers are uncertain, are shown with a selection of clear calls. Rule as the data show it: active = binding response below about 49% or above about 150%; inconclusive = no clear call, values can overlap the other calls; inactive = in between.

Chains of the proteins cited; added tags and fusions are not shown.
UniProt P09471, whole entry, looked up: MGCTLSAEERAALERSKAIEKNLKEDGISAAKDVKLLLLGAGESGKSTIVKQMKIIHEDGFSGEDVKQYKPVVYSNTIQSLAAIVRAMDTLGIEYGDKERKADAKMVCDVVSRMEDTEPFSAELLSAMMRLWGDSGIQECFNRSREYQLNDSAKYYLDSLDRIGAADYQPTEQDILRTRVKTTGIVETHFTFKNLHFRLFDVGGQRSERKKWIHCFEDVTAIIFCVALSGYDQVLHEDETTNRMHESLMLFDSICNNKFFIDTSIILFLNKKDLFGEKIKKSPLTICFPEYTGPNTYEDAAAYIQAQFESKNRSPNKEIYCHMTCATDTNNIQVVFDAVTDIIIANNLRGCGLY

biological target: Guanine nucleotide-binding protein G(o) subunit alpha (Homo sapiens) (UniProt P09471); experiment: RGS7-Galphao binding modulators, primary screen, biochemical, multiplexed bead flow cytometry (AID 1439); settings: at 10 µM, actives lie on both sides;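 also: fluorescent Galphao held in activated GDP-AlF4 state binding bead-coupled RGS7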

For `Cc1sc2nc(CSCC(=O)Nc3ccc(N4CCOCC4)cc3)[nH]c(=O)c2c1C`, which binding response (% of control) is on record?
Its binding response (% of control) is inconclusive: 146%.

For `O=C(CNCc1ccco1)Nc1cccc(S(=O)(=O)N2CCCCC2)c1`, which binding response (% of control) is on record?
Its binding response (% of control) is inconclusive: 169%.

Which binding response (% of control) does the source give for `O=C(Nc1ccccc1)NC1CCN(Cc2c(F)cccc2Cl)CC1` here?
Its binding response (% of control) is inconclusive: 117%.

For `COCCn1c(-c2ccc(Cl)cc2)nc2oc3cc(OC)ccc3c(=O)c2c1=O`, which binding response (% of control) is on record?
Its binding response (% of control) is inconclusive: 229%.

`CC(C)(C)C(=O)N1CCN(c2ncccc2C(F)(F)F)CC1` was tested. Which binding response (% of control) did it give?
The binding response (% of control) was inconclusive: 60.8%.

How did the binding response (% of control) turn out when `CCCn1c(N/N=C\C=C\c2ccccc2)nc2c1c(=O)[nH]c(=O)n2C` was run?
Its binding response (% of control) is inconclusive: 94.9%.

How did the binding response (% of control) turn out when `CCc1ccc(NC(=S)Nc2ccc3[nH]c(=O)[nH]c3c2)cc1` was run?
Its binding response (% of control) is inconclusive: 113%.

With `CC(C)c1ccc2oc(=O)cc(CN3CCN(c4ccc(F)cc4)CC3)c2c1` as the compound, how does the binding response (% of control) read?
Its binding response (% of control) is inactive: 109%.

For `O=C(c1ccccc1)c1ccc(-c2ccc(O)cc2)cc1`, which binding response (% of control) is on record?
The binding response (% of control) was inconclusive: 94.5%.

Which binding response (% of control) does the source give for `CC1=C(c2ccccc2)C(=S)NC(C)(C)C1` here?
Its binding response (% of control) is inconclusive: 470%.

Which binding response (% of control) does the source give for `Cc1cccc(N(Cc2cc3ccccc3[nH]c2=O)C(=O)c2cccs2)c1` here?
The binding response (% of control) was inconclusive: 104%.

`COc1ccc(/C=C/C(=O)OCC(=O)Nc2cc(S(=O)(=O)N(C)C)ccc2Cl)cc1` was tested. Which binding response (% of control) did it give?
The binding response (% of control) was inconclusive: 98.8%.

With `CCC(=O)N1CCC2(CC1)Oc1ccc(Cl)cc1C(=O)C21CC(c2ccc(Cl)cc2)=NO1` (configuration not stated) as the compound, how does the binding response (% of control) read?
Its binding response (% of control) is inconclusive: 93.5%.

`O=C(COC(=O)C1=COCCO1)Nc1cc(S(=O)(=O)N2CCCCC2)ccc1Cl` was tested. Which binding response (% of control) did it give?
Its binding response (% of control) is inconclusive: 103%.

For `Oc1ccccc1-n1nc2ccc3nonc3c2n1`, which binding response (% of control) is on record?
The binding response (% of control) was inconclusive: 79.3%.

How did the binding response (% of control) turn out when `O=C(CSc1n[nH]c(=O)[nH]c1=O)c1ccc([N+](=O)[O-])cc1` was run?
Its binding response (% of control) is inconclusive: 71.5%.

`Cc1nn(CC(=O)NCCCc2ccccc2)c(C)c1[N+](=O)[O-]` was tested. Which binding response (% of control) did it give?
The binding response (% of control) was inconclusive: 111%.

With `CCOC(=O)c1ccc(-n2c(CN3CCOCC3)nc3ccc([N+](=O)[O-])cc3c2=O)cc1` as the compound, how does the binding response (% of control) read?
The binding response (% of control) was inconclusive: 100%.

`O=C(N/N=C/c1ccc(C(=O)O)cc1)C1=NNC(c2ccccc2)(c2ccccc2)C1` was tested. Which binding response (% of control) did it give?
The binding response (% of control) was inconclusive: 96.8%.

`Cc1nc(-c2ccc(Cl)cc2)sc1C1(C)CC(c2c(Cl)cccc2Cl)=NO1` (configuration not stated) was tested. Which binding response (% of control) did it give?
The binding response (% of control) was inconclusive: 90.5%.

Which binding response (% of control) does the source give for `COCC(=O)n1nc(-c2ccc(C)cc2)nc1NCc1ccc(F)cc1` here?
The binding response (% of control) was inconclusive: 106%.

With `c1ccc2c(C3=NNC(=NC4CCCCC4)SC3)c[nH]c2c1` as the compound, how does the binding response (% of control) read?
The binding response (% of control) was inactive: 95.1%.

How did the binding response (% of control) turn out when `COc1ccc(C(=O)/C=C/Nc2cc(C)ccn2)cc1` was run?
The binding response (% of control) was inconclusive: 106%.

With `Cn1cc(Cl)c(C(=O)NNC(=S)Nc2cccc(Cl)c2)n1` as the compound, how does the binding response (% of control) read?
Its binding response (% of control) is inconclusive: 75%.

Which binding response (% of control) does the source give for `COc1cc(NC(=S)NC(=O)c2ccco2)ccc1NC(=O)C(C)C` here?
Its binding response (% of control) is inconclusive: 105%.

For `COc1ccc2cc(-c3[nH]ncc3CN3CCCC3c3nonc3C)ccc2c1` (configuration not stated), which binding response (% of control) is on record?
The binding response (% of control) was inactive: 102%.

For `CN(C)CCCNS(=O)(=O)c1cc(Cl)c(Cl)cc1Cl`, which binding response (% of control) is on record?
The binding response (% of control) was inconclusive: 135%.

`Cc1nnc(SCC(=O)N(C)CC(=O)Nc2ccc(F)cc2)n1Cc1ccccc1` was tested. Which binding response (% of control) did it give?
Its binding response (% of control) is inconclusive: 84.9%.

For `O=C(COc1ccccc1C(=O)O)NC1CCCc2ccccc21` (configuration not stated), which binding response (% of control) is on record?
The binding response (% of control) was inconclusive: 99.9%.

Which binding response (% of control) does the source give for `COc1ccc2c(CC(=O)O)cc(=O)oc2c1` here?
Its binding response (% of control) is inconclusive: 113%.

For `CCOC(=O)N1CCN(C(=O)COc2cccc3c2CCN(Cc2ccccc2F)C3=O)CC1`, which binding response (% of control) is on record?
The binding response (% of control) was inactive: 103%.

With `CC(=C/c1ccc(C(C)C)cc1)/C=N/NC(=O)Cn1nnnc1N` as the compound, how does the binding response (% of control) read?
Its binding response (% of control) is inconclusive: -232%.

How did the binding response (% of control) turn out when `COc1ccc(C(=O)/C=C/Nc2ccc(S(=O)(=O)Nc3nc(C)cc(C)n3)cc2)c(OC)c1` was run?
The binding response (% of control) was inconclusive: 96.6%.

How did the binding response (% of control) turn out when `CCSc1nnc(NC(=O)c2ccc(C)o2)s1` was run?
The binding response (% of control) was inactive: 105%.

For `CCOC(=O)C1CCN(S(=O)(=O)c2ccc(NC(C)=O)c(Cl)c2)CC1`, which binding response (% of control) is on record?
The binding response (% of control) was inconclusive: 113%.

How did the binding response (% of control) turn out when `CN(C)/C=C(\C#N)C(=O)Nc1ccc(F)c(Cl)c1` was run?
Its binding response (% of control) is inconclusive: 97.9%.

With `Cc1nn(CC2CC2)c(=O)n1-c1ccc(Oc2ccccc2)cc1` as the compound, how does the binding response (% of control) read?
The binding response (% of control) was inconclusive: 108%.

Which binding response (% of control) does the source give for `CCN(CC)CC(C)OC(=O)c1ccccc1Cl` (configuration not stated) here?
Its binding response (% of control) is inconclusive: 97.6%.

For `COc1c(Br)cc([N+](=O)[O-])c(OC)c1C(=O)NC(=O)Nc1nc(C)cc(C)n1`, which binding response (% of control) is on record?
The binding response (% of control) was inconclusive: 43.3%.

With `COc1ccccc1N1CCN(c2cnccn2)CC1` as the compound, how does the binding response (% of control) read?
Its binding response (% of control) is inconclusive: 84%.

Which binding response (% of control) does the source give for `COc1cc([N+](=O)[O-])cc(/C=N/NC(=O)CSc2ccccn2)c1O` here?
Its binding response (% of control) is inconclusive: 104%.

`O=C(/C=C/c1cccc(F)c1)c1ccc(N2CCOCC2)cc1` was tested. Which binding response (% of control) did it give?
The binding response (% of control) was inconclusive: 132%.

With `CCCCC1=CC2=C(c3ccco3)C(=O)C(C)(OC(=O)c3ccc(OC)cc3)C(=O)C2=CN1CCN1CCOCC1` (configuration not stated) as the compound, how does the binding response (% of control) read?
The binding response (% of control) was inconclusive: -11.7%.

With `CC(=O)N(CCC1(c2ccc(C)cc2)CCOC(C(C)C)C1)Cc1ccco1` (configuration not stated) as the compound, how does the binding response (% of control) read?
Its binding response (% of control) is inconclusive: 55%.

With `CC(=O)c1cc(C#N)c(SCc2ccc([N+](=O)[O-])cc2)nc1C` as the compound, how does the binding response (% of control) read?
The binding response (% of control) was inconclusive: 98.2%.

For `CCn1c(-c2ccc(F)cc2)cnc1SCC(=O)N1CCCCC1C` (configuration not stated), which binding response (% of control) is on record?
Its binding response (% of control) is inactive: 99.7%.

How did the binding response (% of control) turn out when `O=C(O)Cc1ccc(S(=O)(=O)Nc2ccccc2C(=O)O)cc1` was run?
Its binding response (% of control) is inactive: 103%.

How did the binding response (% of control) turn out when `Cc1ccc(C(=O)NNC2=NC(C)(C)Cc3ccccc32)cc1` was run?
Its binding response (% of control) is inconclusive: 295%.

With `O=C(Nc1ccc(OC(F)(F)F)cc1)Oc1ccccc1N1CCCCC1` as the compound, how does the binding response (% of control) read?
Its binding response (% of control) is inconclusive: 88.2%.

With `C=CCn1cnc2c(nnn2-c2ccc(Cl)cc2)c1=O` as the compound, how does the binding response (% of control) read?
The binding response (% of control) was inactive: 103%.

Which binding response (% of control) does the source give for `CSc1ccc(CN2C(=O)NC3(CCCCC3)C2=O)cc1` here?
Its binding response (% of control) is inconclusive: 101%.

How did the binding response (% of control) turn out when `CC(C)(O)C#Cc1ccc(C(=O)NCCC(=O)O)s1` was run?
The binding response (% of control) was inconclusive: 103%.

Which binding response (% of control) does the source give for `COc1ccccc1OC(=O)CCc1nc2ccccc2s1` here?
Its binding response (% of control) is inconclusive: 59%.

`O=C(N/N=C/c1ccc2c(c1)OCO2)c1ccc(NS(=O)(=O)c2cccs2)cc1` was tested. Which binding response (% of control) did it give?
The binding response (% of control) was inconclusive: 92%.

`Nc1nc(-c2ccccc2)cn1/N=C/c1ccccc1` was tested. Which binding response (% of control) did it give?
Its binding response (% of control) is inconclusive: 100%.

With `Nc1nc(N)c2ncc(C(=O)CCc3ccccc3)nc2n1` as the compound, how does the binding response (% of control) read?
Its binding response (% of control) is inconclusive: 76.9%.

For `CC(C)(C)OC(=O)CNC(=O)c1[nH]cnc1C(=O)Nc1ccc(Cl)cc1`, which binding response (% of control) is on record?
Its binding response (% of control) is inconclusive: 110%.
